Results published in PubChem BioAssay AID2685 (National Center for Advancing Translational Sciences (NCATS), 2010).
In all, about 320,000 compounds went through this assay and about 2,100 (0.66%) were called active. The inconclusive results got no clear call from the source; some entries with a clear call stand among them for comparison. The call rests on the fitted dose curve; in most records, active means well fitted inhibition curve with a large enough effect in the signal ratio, with a control signal flat (not every such curve was filed as active); inconclusive means small, poorly fitted or top-dose-only effect, or effect the other way, or a change in a side signal; inactive means flat fitted curve, though single readings scatter; the % refers to the signal ratio. Potencies of inconclusive entries are doubtful fits and often do not repeat.

assay: qHTS Assay for Lipid Storage Modulators in Drosophila S3 Cells; conditions: BODIPY lipid droplet fluorescence, 18-24 h, cells fed with added oleic acid; lipid storage change, negative = inhibition: at 46.1 µM (top of the series) unless noted
Summary of the method: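 Drosophila S3 cells got compounds at several concentrations plus oleic acid (400 uM solution). Laser-scanning cytometry with 488 nm excitation read lipid droplets at 500-530 nm and cells at 575-640 nm. Percent activity was relative to 20 uM Triacsin C.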
On the % scale 0 is the no-effect control and ±100 the full control effect; potency means the concentration at half of the fitted maximal effect.

SMILES	Potency	lipid storage change, negative = inhibition
CC(=O)Nc1ccc(S(=O)(=O)N[C@@H](C)C(=O)OCc2ccc(Cl)cc2)cc1	inconclusive: 20.6 µM [falling, partial curve]	
S=C(NCc1ccco1)NCC1CCCO1 (stereo not given)	inconclusive: 5.8 µM [falling, single point]	
O=C(CSCc1ccc(Br)cc1)NCc1ccccn1		inconclusive: -30.2%
COc1ccc(CCNC(=O)c2cnc3ccccn3c2=O)cc1	inconclusive: 3.26 µM [activator, partial curve]	
CCOCCOC(=O)C1=C(C)NC(=O)NC1c1cc2c(cc1Br)OCO2 (stereo not given)		inconclusive: 29.8%
Nc1c(C(=O)NCC2CCCO2)sc2nc3c(c(-c4ccco4)c12)CC/C3=C\c1ccco1 (stereo not given)	active: 8.2 µM	
Cc1nc(SC2C=CS(=O)(=O)C2)n[nH]1 (stereo not given)	inconclusive: 0.0052 µM [activator, full curve, poor fit]	
COc1cc(/C=N/NC(=O)c2ccncc2)ccc1OC(=O)c1cc(OC)c(OC)c(OC)c1	inconclusive: 29.1 µM [activator, partial curve, poor fit]	
Cc1ccc(NC(=O)Cc2n[nH]c(=O)c3ccccc23)cc1S(=O)(=O)N1CCCCCC1		inconclusive: 11.8%
COc1ccccc1NC(=O)N1CCCC1		inactive: 8.15%
COc1ccc2oc(C(=O)N(C)CCOc3ccc(Cl)cc3)c(C)c2c1	inconclusive: 0.58 µM [activator, single point]	
CCN(CC(=O)NCc1cccs1)S(=O)(=O)c1ccc([N+](=O)[O-])cc1		inconclusive: -8.85%
COc1ccccc1-c1nn(-c2ccccc2)cc1C(=O)NC1CC1	inconclusive: 16.4 µM [activator, single point]	
CCOC(=O)c1cnn(C)c1NC(=O)c1ccc([N+](=O)[O-])cc1		inconclusive: -28.7%
N/C(=N\O)c1ccc(N2CCN(c3ncccc3C(F)(F)F)CC2)nc1		inconclusive: -16.9%
COc1cc2c(cc1NC(=O)COC(=O)[C@@H](NS(=O)(=O)c1ccccc1)C(C)C)oc1ccccc12		inconclusive: -34.7%
NC(N)=NS(=O)(=O)c1ccc(NC(=S)NC(=O)/C=C/c2cccs2)cc1		inconclusive: 51.8%
CC(=O)c1coc2ccc(OCCN3CCCCC3)cc12		inconclusive: -62.8%
O=C(COc1ccc(Cl)cc1)NNC(=O)CSc1nncs1		inconclusive: 17.7%
CCc1cccc(NS(=O)(=O)c2ccc3c(c2)n(C)c(=O)n3C)c1		inconclusive: -52.2%
CC(NC(=O)c1ccc(S(=O)(=O)Nc2ccccc2)cc1)c1ccc(S(N)(=O)=O)cc1 (stereo not given)		inactive: 11.1%
CCOC(=O)/C(=C/c1c(C)n(C)c2ccc([N+](=O)[O-])cc12)C(C)=O	inconclusive: 32.6 µM [falling, single point]	
CC(C)Oc1ccc(C(=O)N2CCCc3ccccc32)cc1		inconclusive: -9.42%
Cc1ccc(C2=NN(C(=O)CCCC(=O)O)C(c3ccc4c(c3)OCO4)C2)cc1 (stereo not given)	inconclusive: 10.3 µM [activator, partial curve]	
O=C(COC(=O)c1ccccc1)NC12CC3CC(CC(C3)C1)C2	inconclusive: 1.84 µM [activator, partial curve, poor fit]	

SMILES	Potency	lipid storage change, negative = inhibition
COc1ccc(NC(=O)CCC(=O)N(Cc2ccc(OC)c(OC)c2)c2nccs2)cc1		inconclusive: 20.9%
CC(=O)C1=C(C)NC(SCC(=O)c2ccc(F)cc2)=C(C#N)C1c1ccco1 (stereo not given)	inconclusive: 0.116 µM [falling, full curve, poor fit]	
O=C(c1ccc(-c2ccccc2)cc1)N1CCCC1	inconclusive: 6.51 µM [activator, single point]	
CC1CN(C(=O)COC(=O)c2ccccc2O)CC(C)O1 (stereo not given)		inconclusive: 107%
CCCCOCCCNCC(=O)Nc1ccc(S(N)(=O)=O)cc1		inconclusive: -24.4%
O=C(/C=C\c1ccc2c(c1)OCO2)NC1(C(=O)Nc2ccc3c(c2)OCO3)CCCCC1	inconclusive: 4.61 µM [activator, single point]	
Cc1[nH]c2ccccc2c1C(=O)C(=O)N1CCN(c2ccccc2F)CC1		inconclusive: 8.73%
CCCc1nc2c(sc3nc4c(cc32)COC(C)(C)C4)c(=O)o1		inconclusive: 121%
COc1ccc(N2CCN(C(=O)c3nc4nc(C)cc(C)n4n3)CC2)cc1		inconclusive: -9.75%
O=C(NCc1ccccc1)c1cc2ccc(O)cc2oc1=O		inconclusive: 85.9%
N/C(=N/OC(=O)c1ccc(Cl)cc1)c1ncc([N+](=O)[O-])s1		inconclusive: 40.1%
O=C(NCc1ccco1)c1sc2ccccc2c1Cl		inconclusive: -14.9%
O=C(O)CCC(=O)Nc1ccc(C(=O)N2CCCCC2)cc1	inconclusive: 2.06 µM [falling, partial curve]	
O=C(COC(=O)Cc1cccs1)Nc1ccccc1		inconclusive: -4.68%
COc1ccc(CC(C)Nc2cccc(SC)c2)cc1 (stereo not given)	inconclusive: 23.1 µM [activator, single point]	
CN(C)c1ccc(C(CNC(=O)c2ccccc2Br)c2c[nH]c3ccccc23)cc1 (stereo not given)	inconclusive: 0.13 µM [falling, full curve, poor fit]	
COc1cc(C(=O)Oc2ccc(/C=N/NC(=O)c3ccncc3)cc2)cc(OC)c1OC		inconclusive: -23.4%
CC(Oc1cccnc1[N+](=O)[O-])C(=O)Nc1ccc(Cl)cn1 (stereo not given)	inconclusive: 29.1 µM [falling, single point]	
CC(C)(C)C(=O)/C(C#N)=C/c1cccs1		inconclusive: 18.5%
COc1ccc(NC(=O)C(=O)NNC(=O)c2ccc(Cl)cc2Cl)cc1	inconclusive: 29.1 µM [activator, single point]	
COc1ccc(N(C)S(=O)(=O)c2cccc(C(=O)NC3CCCCC3C)c2)cc1 (stereo not given)		inconclusive: 43.4%
COC(=O)c1c(C(=O)OC)c2cc(C)ccn2c1Cl		inconclusive: 50.4%
CCOC(=O)c1ccc(NC(=O)CN(C)S(=O)(=O)c2ccc(Br)s2)cc1		inconclusive: 28.7%
O=S(=O)(c1ccc(Cl)cc1)N1CCCC(C(F)(F)F)C1 (stereo not given)	inconclusive: 29.1 µM [rising, single point]	
Cc1cc(C)cc(OCCCCCNCCO)c1		inactive: -0.724%

Molecules listed so far that contain fluorine:
SMILES	Potency	lipid storage change, negative = inhibition
N/C(=N\O)c1ccc(N2CCN(c3ncccc3C(F)(F)F)CC2)nc1		inconclusive: -16.9%
CC(=O)C1=C(C)NC(SCC(=O)c2ccc(F)cc2)=C(C#N)C1c1ccco1 (stereo not given)	inconclusive: 0.116 µM [falling, full curve, poor fit]	
Cc1[nH]c2ccccc2c1C(=O)C(=O)N1CCN(c2ccccc2F)CC1		inconclusive: 8.73%
O=S(=O)(c1ccc(Cl)cc1)N1CCCC(C(F)(F)F)C1 (stereo not given)	inconclusive: 29.1 µM [rising, single point]	

(next part)

SMILES	Potency	lipid storage change, negative = inhibition
Cc1cc(C)cc(NC(=O)N2CCC(NC(=O)c3ccco3)CC2)c1	inconclusive: 18.4 µM [activator, single point]	
Cc1cc(Br)ccc1NC(=O)CNC(=O)c1ccc(-n2cncn2)c([N+](=O)[O-])c1	inconclusive: 2.06 µM [activator, partial curve]	
COc1ccc(C(=O)NC(=S)Nc2cccc(Cl)c2N2CCOCC2)cc1[N+](=O)[O-]		inconclusive: -29.9%
CC(=O)OCC(=O)Nc1ccc(Br)c(C)c1		inconclusive: 6.95%
CC(C)CN(C(=O)CN(C)C(=O)Cc1ccc(Cl)cc1)c1c(N)n(CC(C)C)c(=O)[nH]c1=O		inconclusive: 10.5%
CCOC(=O)Cc1nnc(Nc2ccc(C)cc2C)c2ccccc12	inconclusive: 0.291 µM [activator, full curve]	
O=C(NNS(=O)(=O)c1ccc2ccccc2c1)c1cccnc1		inconclusive: -1.15%
Cc1ccc(NS(=O)(=O)c2ccc(OCC(=O)NCc3cccnc3)cc2)cc1		inconclusive: -6.33%
CCC1C(=O)c2ccccc2N(C)C1=O (stereo not given)		inconclusive: -3.05%
COc1cccc(N2CC(=O)N(NC(=O)c3sc4nc(C)cc(C)c4c3N)CC2=O)c1		inconclusive: 12.8%
COc1ccc(/C(O)=C2/C(=O)C(=O)N(CCN(C)C)C2c2cccnc2)cc1OC (stereo not given)	inconclusive: 0.0184 µM [rising, full curve, poor fit]	
Cc1ccc2c(c1)N(CCC(=O)NCc1ccc3c(c1)OCO3)C(=O)CO2	inconclusive: 2.31 µM [falling, partial curve]	
O=C(Cn1c(=O)c2sccc2n(Cc2cccc([N+](=O)[O-])c2)c1=O)NCCc1ccccc1		inconclusive: 27%
CN1CCN(S(=O)(=O)c2ccc(=O)[nH]c2)CC1		inconclusive: -107%
Cc1cc2nccc(-c3ccc(Cl)c([N+](=O)[O-])c3)n2n1		inconclusive: 7.97%
Cc1csc(SCC(=O)N2CCN(S(=O)(=O)c3ccccc3)CC2)n1		inconclusive: -34.3%
COc1cc(CN(C2CCCCC2C)S(=O)(=O)c2ccc(S(=O)(=O)NC3CC3)cc2)cc(OC)c1OC (stereo not given)	inconclusive: 20.6 µM [falling, single point]	
CC1Sc2ccc(S(=O)(=O)CCC(=O)NCc3ccccc3Cl)cc2NC1=O (stereo not given)		inconclusive: 84%
CCOC(=O)Cn1c(=O)oc2cc(S(=O)(=O)Nc3cc(Cl)ccc3OC)ccc21		inconclusive: 0.532%
Nc1nc(NCCOCCO)nc(Nc2cccc(F)c2)c1[N+](=O)[O-]		inconclusive: 59.5%
Cc1cc(C)cc(NC(=O)Cn2cc(C=O)c3ccccc32)c1	inconclusive: 0.326 µM [falling, full curve, poor fit]	
CC12CCC(C(=O)Nc3c(Cl)cccc3Cl)(C(Br)C1=O)C2(C)C (stereo not given)		inconclusive: 0.54%
Cc1cc(C(=O)Nc2cc(S(C)(=O)=O)ccc2Cl)no1		inconclusive
CCN(CC)C(=O)c1sc(N)c(C#N)c1C	inconclusive: 16.4 µM [activator, partial curve]	
COc1ccc(C)cc1NC(=O)c1cc(S(=O)(=O)N2CCCC2)cn1C		inconclusive: -23.1%
